# Measurements from PubChem BioAssay AID540256 (National Center for Advancing Translational Sciences (NCATS), 2011).
# Among all 300,000 compounds or so, about 3,700 (1.2%) were called active. This list was built around the results that the source calls inconclusive (neither active nor inactive); the mix of calls is not that of the screen. The call rests on the fitted dose curve; tested in HEK293 cells. Where the call is inconclusive, the potency comes from a doubtful curve fit.
# Assay: qHTS for Inhibitors of binding or entry into cells for Lassa Virus; further: nearly all actives have a fitted effect of over 50% in size
# Conditions: Lassa virus pseudotype entry inhibition, cell reporter; activity change, negative = inhibition: at 37.9 µM (top of the series) unless noted
# On the % scale 0 is the no-effect control and ±100 the full control effect; potency means the concentration at half of the fitted maximal effect.
SMILES,"activity change, negative = inhibition",Potency
CC(C)Oc1ccc(CNC(=O)Nc2ccc3c(c2)N(C)C(=O)c2ccccc2S3)cc1,inactive: -4.79% [at 46.1 µM],
COc1ccccc1C(CNc1ncccc1[N+](=O)[O-])N(C)C (configuration not stated),inactive: 28.4%,
CC1=CC(C)[C@H](/C=N/n2c(=O)[nH]c3c([nH]c4ccc(C)cc43)c2=O)C(C)C1 (some centres not stated),,"inconclusive: 14.1 µM [inhibitor, partial curve, poor fit]"
c1cncc(-c2noc(C34CC5CC(CC(C5)C3)C4)n2)c1,inactive: -25.5%,
CC1Oc2ccccc2N(CC(=O)Nc2ccccc2F)C1=O (configuration not stated),inactive: -1.09%,
CC1(C)CC(=O)C2=C(C1)N(C1CCCCC1)C(=O)C2(O)C(F)(F)F (configuration not stated),,"inconclusive: 4.61 µM [inhibitor, partial curve, poor fit]"
O=C(NCC1(N2CCCCC2)CCCCC1)c1cccc(NS(=O)(=O)c2ccccc2)c1,inactive: 23.1%,
COc1ccc(CCNC(=O)c2ccc(-n3c(C)cc4c3CCCC4)cc2)cc1OC,,"inconclusive: 35.5 µM [inhibitor, single point]"
O=C(OCC(=O)N1CCCc2ccccc21)c1ccccc1OC(F)F,inactive: 6.05% [at 46.1 µM],
N#CC1=C(N)OC2=C(C(=O)CC(c3ccccc3)C2)C1c1ccc2c(c1)OCO2 (configuration not stated),,active: 13 µM
COc1cccc(CNC(=O)c2ccc(S(=O)(=O)N3CCCC3)cc2)c1,,"inconclusive: 20.6 µM [activator, partial curve, poor fit]"
COC(=O)[C@@H]1CC[C@H](C)[C@@H](c2ccc(C)cc2)N1C(=O)c1ccc(/C=N/OCC[C@@H]2C=C[C@H](OC(C)=O)[C@@H](COC(C)=O)O2)cc1,inactive: 2.7%,
COc1ccccc1NC(=O)CN1C(=O)CC(c2ccc(C)c(C)c2)=Nc2ccccc21,,"inconclusive: 35.5 µM [inhibitor, single point]"
Oc1ccccc1/C=N/Nc1nc2ccccc2o1,,"inconclusive: 10 µM [inhibitor, partial curve, poor fit]"
CCc1ccc(Nc2nnc(SCC(=O)Nc3sccc3C(N)=O)s2)cc1,,"inconclusive: 29.1 µM [inhibitor, single point]"
O=C(CSc1ccc(-c2ccccc2)nn1)NC1CCCCC1,,"inconclusive: 35.5 µM [inhibitor, single point]"
O=S(=O)(c1ccc(Br)cc1)c1nnn2c1nc(Nc1cccc(C(F)(F)F)c1)c1sccc12,inactive: -17.9% [at 46.1 µM],
COc1cc2c(C(=O)N3CCN(C)CC3)c(C)n(-c3ccccc3)c2cc1Br,inactive: 13.2%,
Cc1cc(C)n2nc(SCC(=O)c3ccc[nH]3)nc2n1,,"inconclusive: 0.0052 µM [activator, full curve, poor fit]"
COc1ccc(S(=O)(=O)N2CCC(C(=O)NCc3cccs3)CC2)cc1,,"inconclusive: 35.5 µM [inhibitor, single point]"
CC(=NN1CC(=O)NC1=O)c1ccc([N+](=O)[O-])o1,,"inconclusive: 10 µM [inhibitor, partial curve]"

# Some of the entries above, set out differently.
SMILES	activity change, negative = inhibition	Potency
CC1=CC(C)[C@H](/C=N/n2c(=O)[nH]c3c([nH]c4ccc(C)cc43)c2=O)C(C)C1 (some centres not stated)		inconclusive: 14.1 µM [inhibitor, partial curve, poor fit]
COc1ccc(CCNC(=O)c2ccc(-n3c(C)cc4c3CCCC4)cc2)cc1OC		inconclusive: 35.5 µM [inhibitor, single point]
N#CC1=C(N)OC2=C(C(=O)CC(c3ccccc3)C2)C1c1ccc2c(c1)OCO2 (configuration not stated)		active: 13 µM
O=C(CSc1ccc(-c2ccccc2)nn1)NC1CCCCC1		inconclusive: 35.5 µM [inhibitor, single point]

# Remaining list, next part.

SMILES,"activity change, negative = inhibition",Potency
CCc1cccc(NC(=O)Cn2c(-c3ccccc3)cc(C(C)=O)c2C)c1,,"inconclusive: 0.58 µM [inhibitor, partial curve, poor fit]"
CCOC(=O)N1CCN(Cc2nc3c(c(=O)[nH]c(=O)n3C)n2CCCc2ccccc2)CC1,,"inconclusive: 10.3 µM [inhibitor, partial curve]"
CN(CC(=O)N1CCc2ccccc21)S(=O)(=O)c1ccc(Cl)cc1,,"inconclusive: 0.0073 µM [activator, full curve, poor fit]"
O=C(N/N=C/c1ccco1)c1cc(-c2ccccc2)n[nH]1,inactive: -0.0131%,
CCCS(=O)(=O)N1CCc2ccc(NC(=O)c3ccccc3Cl)cc2C1,,"inconclusive: 1 µM [inhibitor, full curve, poor fit]"
COc1ccc(-c2cc3nc[nH]c(=O)c3s2)cc1,,"inconclusive: 8.2 µM [inhibitor, partial curve, poor fit]"
CCCCCC1CC(CC/C(C)=N/NC(N)=O)C(=O)O1 (configuration not stated),,"inconclusive: 0.794 µM [activator, full curve, poor fit]"
O=C(CC1SC(N2CCCCC2)=NC1=O)Nc1ccc(C(=O)NCc2ccccc2)cc1 (configuration not stated),,"inconclusive: 1.26 µM [activator, single point]"
COc1ccc(Cc2nnc(NC(=O)c3ccc(OC)c(OC)c3)s2)cc1,,"inconclusive: 12.6 µM [inhibitor, partial curve, poor fit]"
CCOc1ccc(/C=N/NC(=O)c2c(-c3ccccc3)noc2C)cc1,,"inconclusive: 1.41 µM [inhibitor, full curve, poor fit]"
O=c1ccc2ccc(OCCOc3cccc(Cl)c3)cc2o1,,"inconclusive: 35.5 µM [inhibitor, single point]"
COc1ccccc1-c1ccc(SCc2ccc([N+](=O)[O-])cc2)nn1,,"inconclusive: 10 µM [inhibitor, partial curve, poor fit]"
Nc1ncnc2c1ncn2C1C=C(CO)C(O)C1O (configuration not stated),,active: 0.251 µM
O=C(OCC1CCCO1)c1ccc2c(c1)N(Cc1cccc(Cl)c1)C(=O)c1ccccc1S2(=O)=O (configuration not stated),inactive: -5.96% [at 46.1 µM],
Nc1nonc1-n1nnc(C(=O)N/N=C/c2cc(Br)ccc2O)c1CSC1=NCCS1,,"inconclusive: 7.08 µM [inhibitor, partial curve, poor fit]"
Cc1nn2c(COc3ccc(NC(=O)c4ccccc4Cl)cc3)nnc2c2ccccc12,,"inconclusive: 5.8 µM [inhibitor, full curve, poor fit]"
Cn1ccc2c(N3CCCC3)cc3c(c21)C1CCC3O1 (configuration not stated),,"inconclusive: 0.0791 µM [inhibitor, partial curve, poor fit]"
O=C(Nc1cccc2ccccc12)OC[C@@H]1CSCCS(=O)(=O)N1,,"inconclusive: 14.1 µM [activator, partial curve, poor fit]"
CNC(=O)c1ccsc1NC(=O)CCS(=O)(=O)c1ccc(F)cc1,inactive: 6.94% [at 46.1 µM],
CNCc1ccccc1Sc1ccc(OC)cc1,,"inconclusive: 28.2 µM [inhibitor, partial curve, poor fit]"
CC(C)c1cccc(OCC(=O)Nc2ccc(S(=O)(=O)Nc3ccccn3)cc2)c1,,"inconclusive: 4.47 µM [inhibitor, partial curve]"
